From PubChem BioAssay AID2551 (National Center for Advancing Translational Sciences (NCATS), 2010)
Where “and” joins values, the source holds several entries; their conditions need not be identical. Equal values may be shown once. The whole screen tested about 310,000 compounds, of which about 17,000 (5.5%) were called active. Inconclusive results, whose numbers are uncertain, are shown with a selection of clear calls. The call rests on the fitted dose curve; in most records, active means well fitted inhibition curve with a large enough effect; inconclusive means small, poorly fitted or top-dose-only effect, or effect the other way; inactive means no such curve, though single readings can be large or run the other way. Potencies of inconclusive entries are doubtful fits and often do not repeat.

Sequences of proteins named here, by UniProt entry; tags and fusion partners are left off. A change or cut given only in a name is not applied to a line headed by its entry.
UniProt P51450: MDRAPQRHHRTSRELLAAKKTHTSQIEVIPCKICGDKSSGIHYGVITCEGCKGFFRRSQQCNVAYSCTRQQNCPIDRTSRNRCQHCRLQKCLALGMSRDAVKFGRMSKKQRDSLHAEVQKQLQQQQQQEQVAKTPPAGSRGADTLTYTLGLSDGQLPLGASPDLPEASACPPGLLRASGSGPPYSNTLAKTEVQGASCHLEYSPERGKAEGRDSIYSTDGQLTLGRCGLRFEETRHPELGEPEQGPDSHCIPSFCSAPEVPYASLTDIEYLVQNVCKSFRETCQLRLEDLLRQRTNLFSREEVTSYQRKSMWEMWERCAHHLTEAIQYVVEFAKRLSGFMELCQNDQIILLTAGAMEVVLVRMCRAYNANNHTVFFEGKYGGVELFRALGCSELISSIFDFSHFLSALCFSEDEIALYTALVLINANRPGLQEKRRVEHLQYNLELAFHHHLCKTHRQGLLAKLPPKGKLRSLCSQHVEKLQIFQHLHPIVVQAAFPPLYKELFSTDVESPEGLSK

These molecules were tested against Nuclear receptor ROR-gamma (Mus musculus) (UniProt P51450) (assay: qHTS for inhibitors of ROR gamma transcriptional activity). Details: Drosophila S2 Gal4-RORgamma UAS-luciferase reporter, 20 h; activity change, negative = inhibition: at 53.6 µM (top of the series).
Summary of the method: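 Stably transfected Drosophila Schneider cells are the test system, with ROR gamma fused to Gal4 and luciferase under UAS control; luminescence is read after 20 hr of 700 uM copper sulfate induction at ambient temperature.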
Further: nearly all actives have a fitted effect of over 60% in size.
On the % scale 0 is the no-effect control and ±100 the full control effect; potency means the concentration at half of the fitted maximal effect.

| Structure (SMILES) | Potency | activity change, negative = inhibition |
| --- | --- | --- |
| CC(=O)Nc1nc(=S)n(-c2ccccc2)[nH]1 | inconclusive: 22.4 µM [inhibitor, single point] |  |
| CCN(CC1COc2ccccc2O1)C(=S)Nc1ccccc1 (configuration not stated) | inconclusive: 15.8 µM [inhibitor, single point] |  |
| CCn1c(=O)n(CC)c2cc(NC(=O)C(C)c3ccccc3)c(Br)cc21 (configuration not stated) | inconclusive: 0.0282 µM [activator, partial curve] |  |
| O=C(/C=C/c1ccco1)NC(=S)Nc1cc(-c2nc3ccccc3s2)ccc1Cl | active: 0.631 µM |  |
| CCCC(=O)Nc1ccc(NC(=O)c2ccccn2)cn1 | inconclusive: 0.126 µM [activator, full curve, poor fit] |  |
| CC(=O)c1cccc(N=c2scc(-c3ccc(S(=O)(=O)N4CCOCC4)cc3)n2CCO)c1 | inconclusive: 5.01 µM [inhibitor, full curve, poor fit] |  |
| COC(=O)c1ccccc1NC(=S)N(Cc1ccc2c(c1)OCO2)Cc1cc2cccc(C)c2[nH]c1=O |  | inactive: 8.71% |
| O=C(CN(Cc1ccccc1Cl)C(=O)CNS(=O)(=O)c1ccc(F)cc1)NCC1CCCO1 (configuration not stated) |  | inactive: -3.47% |
| CCN(CC)CCCN(Cc1cc2cc3c(cc2[nH]c1=O)OCO3)C(=S)NC | inconclusive: 3.98 µM [inhibitor, partial curve] |  |
| C=CCn1c(C(C)C)nc2ccccc21 | active: 11.2 µM |  |
| O=C(Nc1cccc([N+](=O)[O-])c1)c1ccc2c(c1)OCO2 | inconclusive: 22.4 µM [activator, single point] |  |
| Cc1cc(C)c(C)c(S(=O)(=O)N2C(=S)NC(=O)C2C(C)C)c1C (configuration not stated) | inconclusive: 35.5 µM [inhibitor, single point] |  |
| CC(C)[C@@H](CC(=O)N[C@@H]1CCCC[C@H]1C(=O)N[C@H](CC(=O)N[C@@H](CCC(=O)O)CC(=O)O)Cc1ccccc1)NC(=O)C[C@H](CO)NC(=O)[C@@H]1CCCC[C@H]1N |  | inactive: 13.2% |
| COc1cc2c(cc1NC(=O)COC(=O)c1ccc(C(C)(C)C)cc1)oc1ccccc12 |  | inactive: 19.4% |
| C/C(=N\Nc1nc2ccccc2[nH]1)c1ccc(N2CCOCC2)cc1 | active: 3.16 µM |  |
| O=C1N/C(=C\c2ccccc2)C(O)=C1C=NCc1ccccc1 | inconclusive: 0.794 µM [activator, partial curve, poor fit] |  |
| CCOc1cc(/C=C2\C(=O)ON=C2C)ccc1OCc1ccccc1 | inconclusive: 22.4 µM [inhibitor, single point] |  |
| Cc1csc(NC(=O)CCc2c(C)nc3cc(-c4cccc(F)c4)nn3c2C)n1 | inconclusive: 35.5 µM [activator, single point] |  |
| COc1ccc(NC(=O)COc2nsnc2N2CCOCC2)c(OC)c1 |  | inactive: 1.08% |
| COC(=O)C(Cc1ccccc1)NC(=O)CCCC(=O)NCc1cccc(OC)c1 (configuration not stated) |  | inactive: 2.19% |
| COc1ccc(/C=N/N=C2/NC(=O)C(c3ccccc3)S2)c(OC)c1 (configuration not stated) | active: 14.1 µM |  |
| Cc1cccc(-n2ccc(=O)c(C(=O)Nc3ccc(S(=O)(=O)N4CCOCC4)cc3)n2)c1 |  | inactive: 16% |
| C[C@@H]1[C@H](O)[C@@H](C)/C=C/C=C/C=C/C=C/C=C/C=C/C=C/[C@H](O[C@@H]2O[C@H](C)[C@@H](O)[C@H](N)[C@@H]2O)C[C@@H]2O[C@](O)(C[C@@H](O)C[C@@H](O)[C@H](O)CC[C@@H](O)C[C@@H](O)CC(=O)O[C@H]1C)C[C@H](O)[C@H]2C(=O)O |  | inactive: -0.218% |

| Structure (SMILES) | Potency | activity change, negative = inhibition |
| --- | --- | --- |
| Cc1ccc(-n2cc(CNCC3CC(=O)N(C4CC4)C3)c(-c3cccc(C)c3)n2)cc1 (configuration not stated) | inconclusive: 28.2 µM [inhibitor, single point] |  |
| CC1CC(C)CN(C(=S)SCc2nc(N)nc(Nc3ccccc3)n2)C1 (configuration not stated) | active: 5.62 µM |  |
| Cc1cccc(OCC(=O)N2CCN(C(=O)CCC3CCCC3)CC2)c1 | inconclusive: 35.5 µM [activator, single point] |  |
| CCn1ccnc1CN(C)Cc1cn(-c2cccc(C)c2)nc1-c1cccc(F)c1 | active: 1.58 µM |  |
| COc1ccc(C(=O)N2CCc3cc(OC)c(OC)cc3C2c2ccc(OC)c(OC)c2)cc1OC (configuration not stated) |  | inactive: -35.9% |
| Cc1ccc(NC(=O)NC2CCN(S(=O)(=O)c3ccc(F)cc3)CC2)cc1 | inconclusive: 0.1 µM [activator, full curve, poor fit] |  |
| CS(=O)(=O)Nc1ccccc1C(=O)Nc1cccc(Cl)c1 | inconclusive: 3.16 µM [activator, single point] |  |
| Cc1cccc2cc(C#N)c(SCC(=O)Nc3ccccc3N3CCOCC3)nc12 | inconclusive: 1.26 µM [activator, partial curve] |  |
| CCN(CC)c1nc(-c2ccccn2)nc(-c2ccccc2)c1C#N | active: 1 µM |  |
| COc1ccc(OCC(=O)NCCNC(=O)c2cccnc2)cc1 |  | inactive: -20.5% |
| COC(=O)[C@@]1(Cc2ccc(OC)cc2)[C@@H]2C(=CC(=O)[C@H]2CC(=O)C(=O)N2CCCC2)CN1C(=O)c1ccccc1 | inconclusive: 35.5 µM [inhibitor, single point] and inconclusive: 31.6 µM [inhibitor, single point] |  |
| CCOC(=O)C1CCCN(C(=O)Cn2cnc3sc(C)c(S(=O)(=O)N4CCOCC4)c3c2=O)C1 (configuration not stated) |  | inactive: 0.402% |
| COc1ccc(C[C@H]2COC(=O)[C@@H]2Cc2ccc(OC3OC(CO)C(O)C(O)C3O)c(OC)c2)cc1OC (some centres not stated) | inconclusive: 35.5 µM [activator, single point] |  |
| O=C(c1cc2c(s1)-c1ccccc1S(=O)(=O)C2)N1CCN(Cc2ccccc2)CC1 | inconclusive: 35.5 µM [inhibitor, single point] |  |
| CC(=O)Nc1ccc2nc(NC(=O)c3ccc([N+](=O)[O-])o3)sc2c1 | inconclusive: 17.8 µM [inhibitor, single point] |  |
| CC(C)OC(=O)CSc1nc2c(c(C3CC=CCC3)c1C#N)CCC2 (configuration not stated) | inconclusive: 0.708 µM [inhibitor, single point] |  |
| COC(=O)c1ccc(NC(=S)NC2CC3CCC2C3)cc1 (configuration not stated) | active: 11.2 µM |  |
| Cc1cccc(C)c1N(CC(=O)NCc1ccco1)C(=O)CNS(=O)(=O)c1ccc(F)cc1 | inconclusive: 12.6 µM [activator, partial curve] |  |
| COc1cc(/C=C/C(=O)c2ccc(O)cc2O)ccc1O | inconclusive: 20 µM [inhibitor, single point] |  |
| COc1ccc(/C=C/C2=C[C@]3(C)C[C@]2(C)[C@H](c2ccc(OC)cc2)CC3=O)cc1 |  | inactive: 23.6% |
| CC(C)(C)c1ccc(/C=C/C(=O)N2CCOCC2)cc1 | inconclusive: 12.6 µM [activator, partial curve, poor fit] |  |
| O=C(NCc1cccs1)NC1CCCCC1 | inconclusive: 35.5 µM [activator, partial curve, poor fit] |  |
| COc1ccccc1-c1ccc2ncnc(NCc3cnc(C)cn3)c2c1 | inconclusive: 12.6 µM [activator, partial curve] |  |

| Structure (SMILES) | Potency | activity change, negative = inhibition |
| --- | --- | --- |
| CC(C)Oc1ccccc1C1CC(=O)Nc2cc3c(cc21)OCO3 (configuration not stated) | inconclusive: 1.78 µM [activator, full curve, poor fit] |  |
| c1cnc2c(c1)ccc1cccnc12 | inconclusive: 11.2 µM [inhibitor, partial curve, poor fit] and inconclusive: 12.6 µM [inhibitor, partial curve, poor fit] |  |
| Cc1ccc(/C=N/n2c(-c3ccccc3)n[nH]c2=S)cc1 | inconclusive: 1.12 µM [inhibitor, partial curve, poor fit] |  |
| NS(=O)(=O)c1ccc(NC(=O)CSc2nc(Nc3ccccc3)nc(N3CCOCC3)n2)cc1 |  | inactive: -2.05% |
| COc1ccc(NC(=O)Nc2cccc3ccccc23)c(OC)c1 | inconclusive: 35.5 µM [inhibitor, partial curve, poor fit] |  |
| COc1ccc(NC(=O)c2cncc(Br)c2)cc1S(N)(=O)=O | active: 11.2 µM |  |
| CCn1c(=N)n(CC(=O)c2ccc(OC)c(OC)c2)c2ccccc21 |  | inactive: -82.3% |
| COc1ccc2nc3ccccc3nc2c1N | inconclusive: 12.6 µM [inhibitor, partial curve, poor fit] |  |
| Cc1cc(NC(=O)CSc2nc3ccccc3c(=O)n2Cc2ccccc2)no1 | inconclusive: 35.5 µM [inhibitor, single point] |  |
| COc1ccccc1N=Nc1nc(-c2ccccc2)c(-c2ccccc2)[nH]1 | active: 3.16 µM |  |
| COC(=O)c1ccc(CSc2nc3ccccc3s2)o1 | inconclusive: 10 µM [activator, single point] |  |
| O=C(Nc1ccccc1N1CCN(C(=O)c2ccc(Cl)cc2)CC1)c1cc(Br)ccc1Cl |  | inactive: -2.89% |
| Cc1cccc(/C=N/n2c(C)nc3ccccc3c2=O)c1 |  | inactive: 16.2% |
| O=C(Nc1ccc(F)cc1F)NC1CCN(Cc2c(F)cccc2Cl)CC1 |  | inactive: 24.5% |
| CC(C)(C)c1ccc(C(=O)NNC(=O)c2ccc(Cl)cc2)cc1 |  | inactive: -16.3% |
| O=S(=O)(c1cccc(-c2n[nH]c(=S)n2Cc2ccccc2)c1)N1CCOCC1 |  | inactive: -30.9% |
| O=C(N/N=C/c1ccc(OC(F)F)cc1OC(F)F)NC1CCCCC1 | inconclusive: 6.31 µM [inhibitor, partial curve] |  |
| CCOC(=O)C1(Cc2ccccc2C)CCCN(Cc2cc(OC)c(O)c(OC)c2)C1 (configuration not stated) | inconclusive: 35.5 µM [inhibitor, single point] |  |
| C(=N\Nc1nncc2ccccc12)/c1ccccn1 | active: 1.41 µM |  |
| CSCCC(NS(=O)(=O)c1ccc(Cl)cc1)C(=O)OCC(=O)NC12CC3CC(CC(C3)C1)C2 (configuration not stated) | inconclusive: 28.2 µM [inhibitor, single point] |  |
| CCN(CC(=O)NCCc1ccc(S(N)(=O)=O)cc1)Cc1nc2ccccc2c(=O)[nH]1 | active: 6.31 µM |  |

3 records picked at random from the list so far, as already listed:

| Structure (SMILES) | Potency | activity change, negative = inhibition |
| --- | --- | --- |
| COc1ccc2nc3ccccc3nc2c1N | inconclusive: 12.6 µM [inhibitor, partial curve, poor fit] |  |
| Cc1cccc(/C=N/n2c(C)nc3ccccc3c2=O)c1 |  | inactive: 16.2% |
| c1cnc2c(c1)ccc1cccnc12 | inconclusive: 11.2 µM [inhibitor, partial curve, poor fit] and inconclusive: 12.6 µM [inhibitor, partial curve, poor fit] |  |
